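Growth of Mycobacterium tuberculosis over 4 days (cholesterol / DPPC medium with tyloxapol); the read-out is not stated. Tested at 50 µM. The record gives no direction; compounds that gave an IC50 in retests scored well above the rest, so higher reads as more growth inhibition. Of about 69,000 compounds tested this way, about 370 (0.54%) reached 50% or more in at least one test.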

The filed quantity is “Percent Effect” (%). The controls that fix the scale are not given in the record; negative values are as filed. The compounds are a random part of those screened. Two or more numbers in one place are separate tests of the same structure; such repeats can differ widely.

SMILES	Percent Effect
CCc1ccc(CNC(=O)NC2CCCc3c2cnn3CCO)s1 (centres unmarked)	-3.434% and -8.691%
CCc1c(C(=O)N2CCC(CC(N)=O)CC2)cnn1C(C)(C)C	-9.66%
Cc1nn(C)c(Cl)c1C1CCCN1C(=O)c1cccc(C#N)c1 (centres unmarked)	4.987%
Cc1cnn(CC2CCCCN2Cc2nc(-c3ccoc3)no2)c1 (centres unmarked)	14.37%
CCn1cc(CN(C)S(=O)(=O)c2ccc(C)c(C)c2)cn1	2.94%
Cc1cc(C2CCCN2C(=O)c2ccc(OCC(N)=O)cc2)no1 (centres unmarked)	12.62%
CCCc1nc(CN2CCCC(c3noc(C4CC4)n3)C2)no1 (centres unmarked)	-24.23%
Cn1ccc(C(=O)N2CCC(Cc3cnc4[nH]ccc4c3)C2)n1 (centres unmarked)	-16.63%
[H][C@@]12CS(=O)(=O)C[C@]1([H])N(Cc1cc(Cl)cc(Cl)c1)CCN2CC1CC1	19.6%
Cc1nn(C)c2c(NCCCn3cccn3)nc(C(C)C)nc12	-9.967%
COCC(=O)N1CCC(c2cc3nc(C)cc(C(F)(F)F)n3n2)CC1	-5.582% and -11.29%
CC(Cc1ccccc1Cl)NC(=O)Nc1cnn(CC(N)=O)c1 (centres unmarked)	-23.6%
CN1CCc2c(C#N)c(NCc3ccncc3)n3cnnc3c2C1	-8.655%
Cc1nc2cc(OCc3nc(C(=O)NC(C)(CO)CO)co3)ccc2s1	7.162% and -17.11%
CSc1cccc(CN2CCC(CCC(=O)Nc3ccccc3)CC2)c1	0.4899% and -0.8464%
COCCCNC(=O)Nc1ncc(-c2cccc(OC)c2)n1CCOC	-1.54%
COC(=O)c1ccc(C(=O)NCC2(O)CCOCC2)cc1	-18.57%
CSc1ccc(CCNC(=O)Cc2c(C)n[nH]c2C)cc1	-6.528%
Cn1cc(N2CCC(NC(=O)c3c(F)cccc3Cl)C2=O)cn1 (centres unmarked)	-4.809%
COc1ccc(Cl)cc1S(=O)(=O)N(C)CC(N)=O	6.151%
O=C(Nc1nncs1)N1CCCN(C2CCCCC2)CC1	2.456%
O=C(c1ccsc1)N1CCc2c(COCc3ccncc3)cncc2C1	-0.5346%
Cc1nc2n(n1)CC(NCc1nc(C)c(C)o1)CC2 (centres unmarked)	-0.445%
CN(Cc1ccccn1)C(=O)c1nn(C)c2c1CCN(CC1CC1)C2.O=C(O)C(F)(F)F.O=C(O)C(F)(F)F.O=C(O)C(F)(F)F	6.138%
Cn1c(N2CCOCC2)nc2cc(C(=O)N[C@@H]3CC[C@@H](N)C3)ccc21	4.641%
CN(Cc1cn2c(n1)CN(Cc1nccs1)CC2)Cc1ccco1.O=C(O)C(F)(F)F.O=C(O)C(F)(F)F	-15.3% and 2.833%
Cc1cnc(-n2cnnc2)c(-c2cccc3c2CCNC3)c1	3.375%
COCCN1CCN(c2nc(C3CCCC3)nc3c2cnn3C)CC1	5.933%
c1ccc(CN2CCC(CCNc3ncnc4c3CCNCC4)C2)cc1 (centres unmarked)	9.607%
CN1CCN2CCN(Cc3cc(=O)n4c5c(cccc35)CCC4)CC2C1 (centres unmarked)	22.23%
Cc1cc(C(=O)NCCc2cn3nc(C)sc3n2)c(C)o1	-11.06%
CCOC1COC2(CCN(Cc3ccc(C)cc3)CC2)C1.O=C(O)C(F)(F)F (centres unmarked)	-14.98%
Cn1nc(CO)c2c1CCN(c1ncnc3c1CCNCC3)C2	10.56%
CCN(CC1CCOC1)C(=O)c1cn2ccc(C)cc2n1 (centres unmarked)	7.339%
CC(Nc1cccc(CN2CCOC2=O)c1)C(=O)Nc1ccccc1F (centres unmarked)	-3.955%
Cn1cccc1-c1cc(C(=O)N2CCCC2c2nccs2)[nH]n1 (centres unmarked)	6.643%
CC(C)NC(=O)N(C)C(c1cccc(F)c1)c1ccccn1 (centres unmarked)	0.547%
[H][C@]12CCCCN1CCC[C@H]2CCc1nc(C(C)C)no1	-10.52%
CCCc1ncc(CNC2(c3ccc(Cl)cc3)CC2)cn1	-9.248%
CCN(C1CCN(C(=O)c2cccc(Cl)c2)CC1)S(C)(=O)=O	18.02%
O=C(COc1coc(CN2CCCCC2)cc1=O)c1ccccc1	0.966%
CCOc1cccc(CNC(=O)NCC(O)c2cccc(F)c2)c1 (centres unmarked)	-8.451%
COc1cc(CNc2cc(-c3ccoc3C)nn2CCO)ccc1F	0.01772%
O=C(NCC1CCOCC1)c1cc(-c2cccnc2)c2cnccc2n1	8.756%
Cc1nc(CN2CCC3(CCN(c4cnn(C)c4)C3=O)C2)cs1.O=C(O)C(F)(F)F (centres unmarked)	-5.897%
Cc1cccc(CN2C(=O)CCC23CCN(Cc2ccoc2)CC3)n1	0.953% and -4.287%
Cc1cc(CN2CCN(CC(O)c3cccc(F)c3)CC2)no1 (centres unmarked)	4.065%
[H][C@]12CC[C@]([H])(CN(C(=O)Cc3ccccn3)C1)N(Cc1ccccc1)C2=O	-8.958%
CCC[C@@H]1CN(c2ncnc3sccc23)C[C@H]1NS(C)(=O)=O	3.242%
Cc1nc(C2CCCN(C(=O)CCn3ccccc3=O)C2)no1 (centres unmarked)	-6.264%
OC1(CNCc2csc(-c3ncccn3)n2)CCCNC1 (centres unmarked)	-8.096%
COc1cccn(Cc2nnc(-c3cccnc3)o2)c1=O	-1.962%
COCC(=O)N1CCN(c2cc(-n3cccc3)nc(C)n2)CC1	22.67%
CC(C)n1ccnc1C1CCN(C(=O)c2ccccn2)CC1	-10.55% and -5.415%
COc1ncccc1CNC(=O)NC1CCCOc2ccccc21 (centres unmarked)	-18.16%
OC1CCN(c2ccccc2NCc2nc(-c3cccs3)no2)CC1	3.451%
Cc1noc(C)c1C(=O)N1CCCC(c2nccn2Cc2cscn2)C1 (centres unmarked)	-11.28% and -3.431%
CN(C)C(=O)CN1CCC2(CCCN(Cc3cccs3)C2)C1=O.O=C(O)C(F)(F)F (centres unmarked)	-16.19% and 6.743%
Cc1nsc(NC(=O)N2CCC(C(C)(C)O)CC2)n1	-18.75%
COCCNC(=O)NCCc1ccn(-c2ccccc2)n1	15.06%
Cc1cc(C)n(C2CCCN(C(=O)COCC(F)(F)F)C2)n1 (centres unmarked)	3.143%
CCN(C)CCNC(=O)Cc1nc(-c2ccco2)oc1C	-9.016%
Nc1cc(C(=O)NCC2CCN(Cc3cccc(O)c3)C2)ccn1 (centres unmarked)	-8.134%
CCc1noc(CN(CC(=O)N2CCCCC2)c2ccc(C)cc2)n1	5.417%
Cc1ccc(S(=O)(=O)Nc2cnn(C3CCOCC3)c2)cc1C	-3.318%
N#Cc1ccc(CN2CCCCC2Cn2cncn2)c(F)c1 (centres unmarked)	-22.55%
CC(C)CN(CC(F)(F)F)S(=O)(=O)c1cc(C(N)=O)n(C)c1	-2.022%
O=C(COc1ccccc1)N1CCCC1c1ccc[nH]1 (centres unmarked)	-9.811%
CCc1nccn1C1CCCN(C(=O)c2ccn(-c3ccccc3)n2)C1 (centres unmarked)	-2.13%
CCS(=O)(=O)N1CCCCC1c1nc(CC(C)C)no1 (centres unmarked)	-19.59%
Cc1ccc(OC2(C(=O)O)CCN(C(=O)c3nc(C)oc3C)CC2)cn1	7.433%
CS(=O)(=O)NCCCN1CCCC1Cc1ccccc1 (centres unmarked)	17.7%
[H][C@@]12CCN(c3ccc(C)nn3)C[C@]1(C(=O)N1CCCC1)CCO2	4.772%
Cc1ccc(N2CCCC3(CCCC(=O)N3)C2)nn1.O=C(O)C(F)(F)F (centres unmarked)	13.95%

Some entries from above, unchanged:

SMILES,Percent Effect
Cc1cc(C2CCCN2C(=O)c2ccc(OCC(N)=O)cc2)no1 (centres unmarked),12.62%
CCc1ccc(CNC(=O)NC2CCCc3c2cnn3CCO)s1 (centres unmarked),-3.434% and -8.691%
Cn1c(N2CCOCC2)nc2cc(C(=O)N[C@@H]3CC[C@@H](N)C3)ccc21,4.641%
CN1CCN2CCN(Cc3cc(=O)n4c5c(cccc35)CCC4)CC2C1 (centres unmarked),22.23%
Cc1ccc(S(=O)(=O)Nc2cnn(C3CCOCC3)c2)cc1C,-3.318%
Cc1cc(C)n(C2CCCN(C(=O)COCC(F)(F)F)C2)n1 (centres unmarked),3.143%

Data taken from ChEMBL document CHEMBL3988442, “University of Dundee, Small-Polar-MMV Screening Library” (2021).